# Data published in the supplement of paper PMC8728848.
# The list shows a part of the results.
# B1: Eosinophil-derived neurotoxin (EDN) (Homo sapiens), P10153 (protein)
# chain: MVPKLFTSQICLLLLLGLLAVEGSLHVKPPQFTWAQWFETQHINMTSQQCTNAMQVINNYQRRCKNQNTFLLTTFANVVNVCGNPNMTCPSNKTRKNCHHSGSQVPLIHCNLTTPSPQNISNCRYAQTPANMFYIVACDNRDQRRDPPQYPVVPVHLDRII
# Key:
# Assay in all cases: glycan array binding signal (z-score within array); higher = stronger binding
# Conditions in all cases: glycan notation: IUPAC condensed, linker removed
# GlcNAc(b1-3)Gal(b1-4)Glc = target: GlcNAc(b1-3)Gal(b1-4)Glc
# Outline: (§1)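 Glycan array binding is given as a within-array Z-score, which can be read as non-binding when negative. The arrays, 3228 of them, came from the Consortium for Functional Glycomics database and were retained only where the protein sequence was available. Z-scores were averaged across arrays of the same protein sequence at different concentrations or buffers and across linkers.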
# [1] = target: GlcNAc(b1-3)Gal(b1-4)GlcNAc
# Outline: as §1
# [2] = target: GlcNAc(b1-3)Gal(b1-4)GlcNAc(b1-3)Gal(b1-4)GlcNAc
# Outline: as §1
# GlcNAc(b1-3)GalNAc = target: GlcNAc(b1-3)GalNAc
# Outline: as §1
# GlcNAc(b1-3)Man = target: GlcNAc(b1-3)Man
# Outline: as §1
# [3] = target: GlcNAc(b1-3)[GlcNAc(b1-4)][GlcNAc(b1-6)]GlcNAc
# Outline: as §1
# [4] = target: GlcNAc(b1-3)[GlcNAc(b1-6)]Gal(b1-4)GlcNAc
# Outline: as §1
# [5] = target: GlcNAc(b1-3)[GlcNAc(b1-6)]GalNAc
# Outline: as §1
# [6] = target: GlcNAc(b1-4)Gal(b1-4)GlcNAc
# Outline: as §1
# GlcNAc(b1-4)GlcNAc = target: GlcNAc(b1-4)GlcNAc
# Outline: as §1
# [7] = target: GlcNAc(b1-4)GlcNAc(b1-4)GlcNAc
# Outline: as §1
# [8] = target: GlcNAc(b1-4)GlcNAc(b1-4)GlcNAc(b1-4)GlcNAc(b1-4)GlcNAc
# Outline: as §1
# [9] = target: GlcNAc(b1-4)GlcNAc(b1-4)GlcNAc(b1-4)GlcNAc(b1-4)GlcNAc(b1-4)GlcNAc
# Outline: as §1
# [10] = target: GlcNAc(b1-4)[GlcNAc(b1-6)]GalNAc
# Outline: as §1
# [11] = target: GlcNAc(b1-6)Gal(b1-4)GlcNAc
# Outline: as §1
# GlcNAc(b1-6)GalNAc = target: GlcNAc(b1-6)GalNAc
# Outline: as §1
# GlcNAc3Prop(b1-4)GlcNAc = target: GlcNAc3Prop(b1-4)GlcNAc
# Outline: as §1
# [12] = target: GlcNAc6S(b1-3)Gal(b1-4)GlcNAc
# Outline: as §1
# Kdn(a2-3)Gal(b1-3)GalNAc = target: Kdn(a2-3)Gal(b1-3)GalNAc
# Outline: as §1
# Kdn(a2-3)Gal(b1-3)GlcNAc = target: Kdn(a2-3)Gal(b1-3)GlcNAc
# Outline: as §1
# Kdn(a2-3)Gal(b1-4)Glc = target: Kdn(a2-3)Gal(b1-4)Glc
# Outline: as §1
# Kdn(a2-3)Gal(b1-4)GlcNAc = target: Kdn(a2-3)Gal(b1-4)GlcNAc
# Outline: as §1
# [13] = target: Kdn(a2-3)Gal(b1-4)[Fuc(a1-3)]GlcNAc
# Outline: as §1
# Kdn(a2-6)Gal(b1-4)GlcNAc = target: Kdn(a2-6)Gal(b1-4)GlcNAc
# Outline: as §1
# [14] = target: Man(a1-2)Man(a1-2)Man(a1-3)Man
# Outline: as §1
# [15] = target: Man(a1-2)Man(a1-2)Man(a1-6)[Man(a1-3)]Man
# Outline: as §1
# Man(a1-2)Man(a1-3)Man = target: Man(a1-2)Man(a1-3)Man
# Outline: as §1
# [16] = target: Man(a1-2)Man(a1-3)[Man(a1-2)Man(a1-6)]Man
# Outline: as §1
# [17] = target: Man(a1-2)Man(a1-3)[Man(a1-2)Man(a1-6)]Man(a1-6)[Man(a1-2)Man(a1-2)Man(a1-3)]Man
# Outline: as §1
# [18] = target: Man(a1-2)Man(a1-3)[Man(a1-2)Man(a1-6)]Man(a1-6)[Man(a1-2)Man(a1-2)Man(a1-3)]Man(b1-4)GlcNAc(b1-4)GlcNAc
# Outline: as §1
# [19] = target: Man(a1-2)Man(a1-3)[Man(a1-6)]Man(a1-6)[Man(a1-2)Man(a1-3)]Man(b1-4)GlcNAc(b1-4)GlcNAc
# Outline: as §1
# [20] = target: Man(a1-2)Man(a1-6)[Man(a1-3)]Man(a1-6)[Man(a1-2)Man(a1-2)Man(a1-3)]Man
# Outline: as §1
# [21] = target: Man(a1-2)Man(a1-6)[Man(a1-3)]Man(a1-6)[Man(a1-2)Man(a1-2)Man(a1-3)]Man(b1-4)GlcNAc(b1-4)GlcNAc
# Outline: as §1
# Man(a1-3)[Man(a1-6)]Man = target: Man(a1-3)[Man(a1-6)]Man
# Outline: as §1
# [22] = target: Man(a1-3)[Man(a1-6)]Man(a1-6)[Man(a1-2)Man(a1-3)]Man(b1-4)GlcNAc(b1-4)GlcNAc
# Outline: as §1
# [23] = target: Man(a1-3)[Man(a1-6)]Man(a1-6)[Man(a1-3)]Man
# Outline: as §1
# [24] = target: Man(a1-3)[Man(a1-6)]Man(a1-6)[Man(a1-3)]Man(b1-4)GlcNAc(b1-4)GlcNAc
# Outline: as §1
# [25] = target: Man(a1-3)[Man(a1-6)]Man(b1-4)GlcNAc(b1-4)GlcNAc
# Outline: as §1
# Man(a1-6)Man = target: Man(a1-6)Man
# Outline: as §1
# Man(b1-4)GlcNAc = target: Man(b1-4)GlcNAc
# Outline: as §1
# Neu5Ac(a2-3)Gal = target: Neu5Ac(a2-3)Gal
# Outline: as §1
# [26] = target: Neu5Ac(a2-3)Gal(b1-3)GalNAc
# Outline: as §1
# [27] = target: Neu5Ac(a2-3)Gal(b1-3)GalNAc(b1-3)Gal(a1-4)Gal(b1-4)Glc
# Outline: as §1
# [28] = target: Neu5Ac(a2-3)Gal(b1-3)GalNAc(b1-4)[Neu5Ac(a2-3)]Gal(b1-4)Glc
# Outline: as §1
# [29] = target: Neu5Ac(a2-3)Gal(b1-3)GalNAc(b1-4)[Neu5Ac(a2-8)Neu5Ac(a2-3)]Gal(b1-4)Glc
# Outline: as §1
binder,measurement,setting,value
B1,glycan array binding signal (z-score),GlcNAc(b1-3)Gal(b1-4)Glc,-0.198
same,glycan array binding signal (z-score),[1],-0.144
same,glycan array binding signal (z-score),[2],-0.442
same,glycan array binding signal (z-score),GlcNAc(b1-3)GalNAc,0.083
same,glycan array binding signal (z-score),GlcNAc(b1-3)Man,-1.13
same,glycan array binding signal (z-score),[3],0.413
same,glycan array binding signal (z-score),[4],0.281
same,glycan array binding signal (z-score),[5],-0.311
same,glycan array binding signal (z-score),[6],-0.65
same,glycan array binding signal (z-score),GlcNAc(b1-4)GlcNAc,-0.215
same,glycan array binding signal (z-score),[7],-0.177
same,glycan array binding signal (z-score),[8],-0.747
same,glycan array binding signal (z-score),[9],-0.132
same,glycan array binding signal (z-score),[10],0.248
same,glycan array binding signal (z-score),[11],-0.341
same,glycan array binding signal (z-score),GlcNAc(b1-6)GalNAc,0.258
same,glycan array binding signal (z-score),GlcNAc3Prop(b1-4)GlcNAc,0.196
same,glycan array binding signal (z-score),[12],-1.39
same,glycan array binding signal (z-score),Kdn(a2-3)Gal(b1-3)GalNAc,-0.354
same,glycan array binding signal (z-score),Kdn(a2-3)Gal(b1-3)GlcNAc,0.411
same,glycan array binding signal (z-score),Kdn(a2-3)Gal(b1-4)Glc,-0.591
same,glycan array binding signal (z-score),Kdn(a2-3)Gal(b1-4)GlcNAc,0.615
same,glycan array binding signal (z-score),[13],0.206
same,glycan array binding signal (z-score),Kdn(a2-6)Gal(b1-4)GlcNAc,-0.368
same,glycan array binding signal (z-score),[14],0.33
same,glycan array binding signal (z-score),[15],-0.069
same,glycan array binding signal (z-score),Man(a1-2)Man(a1-3)Man,0.814
same,glycan array binding signal (z-score),[16],0.08
same,glycan array binding signal (z-score),[17],-0.124
same,glycan array binding signal (z-score),[18],0.081
same,glycan array binding signal (z-score),[19],0.104
same,glycan array binding signal (z-score),[20],0.183
same,glycan array binding signal (z-score),[21],0.515
same,glycan array binding signal (z-score),Man(a1-3)[Man(a1-6)]Man,-0.449
same,glycan array binding signal (z-score),[22],-0.496
same,glycan array binding signal (z-score),[23],-0.419
same,glycan array binding signal (z-score),[24],-0.281
same,glycan array binding signal (z-score),[25],-0.552
same,glycan array binding signal (z-score),Man(a1-6)Man,-0.56
same,glycan array binding signal (z-score),Man(b1-4)GlcNAc,0.116
same,glycan array binding signal (z-score),Neu5Ac(a2-3)Gal,0.063
same,glycan array binding signal (z-score),[26],0.372
same,glycan array binding signal (z-score),[27],-0.236
same,glycan array binding signal (z-score),[28],0.077
same,glycan array binding signal (z-score),[29],0

# As a working copy, part of the list above:
binder,measurement,setting,value
B1,glycan array binding signal (z-score),[15],-0.069
same,glycan array binding signal (z-score),Man(a1-2)Man(a1-3)Man,0.814
